Measurements published in paper PMC5558016.
No constants are given. Whether binding was seen depends on the method and setting. In cells and extracts the contact can be indirect. Some results given as binding are weak or reduced against the parent protein; the word gives no strength. Sequences can lack the tags named with a protein.

Tests used:
Test in all cases: co-IP; HEK293T cells co-transfected with GFP-STIL and Flag-tagged RTTN constructs; NP-40 lysis buffer (50 mM Tris-HCl pH 8.0, 150 mM NaCl, 1% NP-40); IP 2 h at 4 °C (anti-Flag in Fig. 7f), protein-G-sepharose, immunoblot
[1] = target: T1, Flag-RTTN-C (the carboxy-terminal region, aa 1343–2226) (human) (UniProt Q86VV8)
T1 sequence: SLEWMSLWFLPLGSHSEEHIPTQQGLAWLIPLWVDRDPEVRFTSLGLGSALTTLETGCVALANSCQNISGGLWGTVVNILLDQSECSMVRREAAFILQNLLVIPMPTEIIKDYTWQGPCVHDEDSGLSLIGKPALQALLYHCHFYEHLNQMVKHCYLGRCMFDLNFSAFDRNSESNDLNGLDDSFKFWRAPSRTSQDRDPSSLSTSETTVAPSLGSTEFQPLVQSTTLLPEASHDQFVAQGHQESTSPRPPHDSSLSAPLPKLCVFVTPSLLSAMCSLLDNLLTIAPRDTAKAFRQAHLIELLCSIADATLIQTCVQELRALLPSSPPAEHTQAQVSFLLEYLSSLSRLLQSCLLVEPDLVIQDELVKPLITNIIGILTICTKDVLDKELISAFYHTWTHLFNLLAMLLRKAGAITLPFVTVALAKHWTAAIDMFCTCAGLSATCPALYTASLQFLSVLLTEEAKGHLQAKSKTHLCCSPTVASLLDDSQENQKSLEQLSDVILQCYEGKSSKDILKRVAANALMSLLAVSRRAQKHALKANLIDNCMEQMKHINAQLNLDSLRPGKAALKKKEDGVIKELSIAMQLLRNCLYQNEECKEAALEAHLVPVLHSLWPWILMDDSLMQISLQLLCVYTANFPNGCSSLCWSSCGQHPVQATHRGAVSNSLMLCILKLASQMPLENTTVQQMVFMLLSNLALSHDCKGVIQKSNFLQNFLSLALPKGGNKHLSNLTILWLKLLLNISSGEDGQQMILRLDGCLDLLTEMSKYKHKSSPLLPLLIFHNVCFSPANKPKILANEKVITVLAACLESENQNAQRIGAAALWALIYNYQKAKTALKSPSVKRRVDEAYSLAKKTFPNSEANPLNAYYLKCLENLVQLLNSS

[2] = target: T2, Flag-RTTN-N (A578P) mutant (human) (UniProt Q86VV8)
T2 sequence: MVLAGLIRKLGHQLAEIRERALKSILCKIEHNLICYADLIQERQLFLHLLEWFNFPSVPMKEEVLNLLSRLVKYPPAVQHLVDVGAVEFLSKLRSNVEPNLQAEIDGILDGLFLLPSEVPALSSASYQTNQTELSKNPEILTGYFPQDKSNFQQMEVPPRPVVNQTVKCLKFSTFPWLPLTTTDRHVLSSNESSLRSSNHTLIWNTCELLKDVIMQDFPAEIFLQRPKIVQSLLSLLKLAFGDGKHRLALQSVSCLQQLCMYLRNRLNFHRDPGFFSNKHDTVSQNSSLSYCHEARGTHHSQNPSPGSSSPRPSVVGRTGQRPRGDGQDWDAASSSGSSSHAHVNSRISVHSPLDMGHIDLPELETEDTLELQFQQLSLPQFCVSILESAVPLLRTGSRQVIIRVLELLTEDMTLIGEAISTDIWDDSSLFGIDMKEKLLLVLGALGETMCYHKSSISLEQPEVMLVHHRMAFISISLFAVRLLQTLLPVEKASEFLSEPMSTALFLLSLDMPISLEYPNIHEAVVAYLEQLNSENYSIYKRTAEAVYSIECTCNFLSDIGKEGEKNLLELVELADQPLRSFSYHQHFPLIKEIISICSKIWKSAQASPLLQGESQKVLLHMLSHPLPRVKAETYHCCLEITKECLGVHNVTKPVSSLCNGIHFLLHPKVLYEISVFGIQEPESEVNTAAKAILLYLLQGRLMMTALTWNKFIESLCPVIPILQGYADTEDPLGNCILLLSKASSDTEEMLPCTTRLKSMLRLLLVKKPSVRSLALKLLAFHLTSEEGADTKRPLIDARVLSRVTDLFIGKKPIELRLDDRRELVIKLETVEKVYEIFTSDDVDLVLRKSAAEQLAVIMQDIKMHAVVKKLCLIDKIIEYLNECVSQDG

[3] = target: T3, Flag-RTTN-M (the middle region, aa 748–1510) (human) (UniProt Q86VV8)
T3 sequence: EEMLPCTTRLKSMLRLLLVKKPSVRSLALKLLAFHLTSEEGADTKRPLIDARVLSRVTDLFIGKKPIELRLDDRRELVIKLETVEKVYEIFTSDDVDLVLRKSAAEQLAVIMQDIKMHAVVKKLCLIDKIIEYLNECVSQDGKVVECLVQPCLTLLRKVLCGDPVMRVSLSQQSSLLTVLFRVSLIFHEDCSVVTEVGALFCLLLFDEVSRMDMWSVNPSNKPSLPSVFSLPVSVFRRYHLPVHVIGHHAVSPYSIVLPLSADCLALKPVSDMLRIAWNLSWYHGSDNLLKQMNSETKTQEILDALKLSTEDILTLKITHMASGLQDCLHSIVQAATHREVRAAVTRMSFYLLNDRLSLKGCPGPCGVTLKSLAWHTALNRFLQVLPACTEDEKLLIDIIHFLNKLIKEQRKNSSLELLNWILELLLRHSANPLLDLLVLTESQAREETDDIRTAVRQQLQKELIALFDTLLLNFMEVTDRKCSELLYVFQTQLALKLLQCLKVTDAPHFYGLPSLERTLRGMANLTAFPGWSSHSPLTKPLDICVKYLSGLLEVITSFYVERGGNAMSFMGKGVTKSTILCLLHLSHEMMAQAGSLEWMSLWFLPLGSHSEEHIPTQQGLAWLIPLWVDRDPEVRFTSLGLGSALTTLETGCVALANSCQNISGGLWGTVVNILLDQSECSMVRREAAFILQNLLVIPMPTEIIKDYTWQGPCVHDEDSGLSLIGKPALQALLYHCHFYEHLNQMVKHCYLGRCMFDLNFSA

- binding [1]: no binding
- binding [2]: binds
- binding [3]: no binding
B1: GFP-tagged full-length STIL (protein, UniProt Q15468-2 1-1288)
chain: MEPIYPFARPQMNTRFPSSRMVPFHFPPSKCALWNPTPTGDFIYLHLSYYRNPKLVVTEKTIRLAYRHAKQNKKNSSCFLLGSLTADEDEEGVTLTVDRFDPGREVPECLEITPTASLPGDFLIPCKVHTQELCSREMIVHSVDDFSSALKALQCHICSKDSLDCGKLLSLRVHITSRESLDSVEFDLHWAAVTLANNFKCTPVKPIPIIPTALARNLSSNLNISQVQGTYKYGYLTMDETRKLLLLLESDPKVYSLPLVGIWLSGITHIYSPQVWACCLRYIFNSSVQERVFSESGNFIIVLYSMTHKEPEFYECFPCDGKIPDFRFQLLTSKETLHLFKNVEPPDKNPIRCELSAESQNAETEFFSKASKNFSIKRSSQKLSSGKMPIHDHDSGVEDEDFSPRPIPSPHPVSQKISKIQPSVPELSLVLDGNFIESNPLPTPLEMVNNENPPLINHLEHLKPLQPQLYDEKHSPEVEAGEPSLRGIPNQLNQDKPALLRHCKVRQPPAYKKGNPHTRNSIKPSSHNGPSHDIFEKLQTVSAGNVQNEEYPIRPSTLNSRQSSLAPQSQPHDFVFSPHNSGRPMELQIPTPPLPSYCSTNVCRCCQHHSHIQYSPLNSWQGANTVGSIQDVQSEALQKHSLFHPSGCPALYCNAFCSSSSPIALRPQGDMGSCSPHSNIEPSPVARPPSHMDLCNPQPCTVCMHTPKTESDNGMMGLSPDAYRFLTEQDRQLRLLQAQIQRLLEAQSLMPCSPKTTAVEDTVQAGRQMELVSVEAQSSPGLHMRKGVSIAVSTGASLFWNAAGEDQEPDSQMKQDDTKISSEDMNFSVDINNEVTSLPGSASSLKAVDIPSFEESNIAVEEEFNQPLSVSNSSSLVVRKEPDVPVFFPSGQLAESVSMCLQTGPTGGASNNSETSEEPKIEHVMQPLLHQPSDNQKIYQDLLGQVNHLLNSSSKETEQPSTKAVIISHECTRTQNVYHTKKKTHHSRLVDKDCVLNATLKQLRSLGVKIDSPTKVKKNAHNVDHASVLACISPEAVISGLNCMSFANVGMSGLSPNGVDLSMEANAIALKYLNENQLSQLSVTRSNQNNCDPFSLLHINTDRSTVGLSLISPNNMSFATKKYMKRYGLLQSSDNSEDEEEPPDNADSKSEYLLNQNLRSIPEQLGGQKEPSKNDHEIINCSNCESVGTNADTPVLRNITNEVLQTKAKQQLTEKPAFLVKNLKPSPAVNLRTGKAEFTQHPEKENEGDITIFPESLQPSETLKQMNSMNSVGTFLDVKRLRQLPKLF
